Assay results as given in patent publication US20220017588A1.
Results are given in words; binding and its absence hold for the method and conditions named. Some results given as binding are weak or reduced against the parent protein; the word gives no strength. One block for each binder: values may come before it.

Sequences of proteins named here, by UniProt entry; tags and fusion partners are left off. Residues count along the entry.
UniProt P24394, residues 26-227: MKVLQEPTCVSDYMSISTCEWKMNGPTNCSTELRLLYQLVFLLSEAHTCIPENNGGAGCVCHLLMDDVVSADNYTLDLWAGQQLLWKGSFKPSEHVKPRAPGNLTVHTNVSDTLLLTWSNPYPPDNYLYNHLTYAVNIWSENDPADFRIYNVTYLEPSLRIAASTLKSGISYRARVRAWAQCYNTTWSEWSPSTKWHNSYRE

Key:
[1] = molecular target: EGFR on engineered K562 cells (UniProt P00533); assay: flow cytometry on K562 lines; binding to EGFR read from IL-2 receptor recruitment to double positive cells after washing
[2] = molecular target: Her2 on engineered K562 cells (UniProt P04626); assay: flow cytometry on K562 lines; binding to Her2 read from IL-2 receptor recruitment to double positive cells after washing
[3] = molecular target: Her2 on engineered K562 cells (UniProt P04626); assay: flow cytometry on K562 lines; binding to Her2 read from IL-2 receptor recruitment after washing
human IL-4Rα (human) = human IL-4Rα (human) (UniProt P24394); assay: biolayer interferometry (FIG. 21)

binding [2]: binds
B2: aHer2-Neo2A2 (G3_Her2_DARPin_X1-Z1-X3) (designed binder)
chain: MGSHHHHHHGSGSENLYFQGSGSGDLGKKLLEAARAGQDDEVRILMANGADVNAKDEYGLTPLYLATAHGHLEIVEVLLKNGADVNAVDAIGFTPLHLAAFIGHLEIAEVLLKHGADVNAQDKFGKTAFDISIGNGNEDLAEILQKLNGSGGSGGGSGGSGSGPKKKIQLHAEHALYDALMILNIVKTNSPPAEEKLEDYAFNFELILEEIARLFESG

binding [1]: binds
B3: Neo2B2-aEGFR (X2-Z2-X4-E01_EGFR_DARPin) (designed binder)
chain: MGSHHHHHHGSGSENLYFQGSGGGDQKDEAEKAKRMKEWMKRIKTTASEDEQEEMANAIITILQSWIFSGSGGSGGGSGGSGSGGSGGGDLGKKLLEAARAGQDDEVRILMANGADVNADDTWGWTPLHLAAYQGHLEIVEVLLKNGADVNAYDYIGWTPLHLAADGHLEIVEVLLKNGADVNASDYIGDTPLHLAAHNGHLEIVEVLLKHGADVNAQDKFGKTAFDISIDNGNEDLAEILQKLN

binding [1]: binds
B5: Neo2B1-aEGFR (X2-Z1-X3-Z2-X4-E01_EGFR_DARPin) (designed binder)
chain: MGSHHHHHHGSGSENLYFQGSGGGTNSPPAEEKLEDYAFNFELILEEIARLFESGDQKDEAEKAKRMKEWMKRIKTTASEDEQEEMANAIITILQSWIFSGSGGSGGGSGGSGSGGSGGGDLGKKLLEAARAGQDDEVRILMANGADVNADDTWGWTPLHLAAYQGHLEIVEVLLKNGADVNAYDYIGWTPLHLAADGHLEIVEVLLKNGADVNASDYIGDTPLHLAAHNGHLEIVEVLLKHGADVNAQDKFGKTAFDISIDNGNEDLAEILQKLN

binding (human IL-4Rα (human)): binds
B6: Neo4A1+Neo4B1 (equimolar combination) (designed binder)
chain 1: PKKKIQIMAEEALKDALSILNIVKTNS
chain 2: TNSPPAEEQLERFAKRFERNLWGIARLFESGDQKDEAEKAKRMIEWMKRIKTTASEDEQEEMANAIITILQSWFFS

The next lines start with the binder.

B1: Neo2B3-aEGFR (X4-E01_EGFR_DARPin) (designed binder)
chain: MGSHHHHHHGSGSENLYFQGSGGGTTASEDEQEEMANAIITILQSWIFSGSGGSGGGSGGSGSGGSGGGDLGKKLLEAARAGQDDEVRILMANGADVNADDTWGWTPLHLAAYQGHLEIVEVLLKNGADVNAYDYIGWTPLHLAADGHLEIVEVLLKNGADVNASDYIGDTPLHLAAHNGHLEIVEVLLKHGADVNAQDKFGKTAFDISIDNGNEDLAEILQKLN
binding [1]: binds

B4: aHer2-Neo2B1 (G3_Her2_DARPin_X2-Z1-X3-Z3-X4) (designed binder)
chain: MGSHHHHHHGSGSENLYFQGSGSGDLGKKLLEAARAGQDDEVRILMANGADVNAKDEYGLTPLYLATAHGHLEIVEVLLKNGADVNAVDAIGFTPLHLAAFIGHLEIAEVLLKHGADVNAQDKFGKTAFDISIGNGNEDLAEILQKLNGSGGSGGGSGGSGSGTNSPPAEEKLEDYAFNFELILEEIARLFESGDQKDEAEKAKRMKEWMKRIKTTASEDEQEEMANAIITILQSWIFS
binding [3]: binds

B7: aHer2-Neo2A1 (G3_Her2_DARPin_X1) (designed binder)
chain: MGSHHHHHHGSGSENLYFQGSGSGDLGKKLLEAARAGQDDEVRILMANGADVNAKDEYGLTPLYLATAHGHLEIVEVLLKNGADVNAVDAIGFTPLHLAAFIGHLEIAEVLLKHGADVNAQDKFGKTAFDISIGNGNEDLAEILQKLNGSGGSGGGSGGSGSGPKKKIQLHAEHALYDALMILNIVKTNS
binding [3]: binds
